What is called AC50 is the concentration at which the activity in the assay is half-maximal.

This passage reports cell number change and AC50 results from PubChem BioAssay AID2685 (National Center for Advancing Translational Sciences (NCATS), 2010).

The structures appear in SMILES notation. The list shows a part of the results. These are further read-outs of the screen, such as a control signal, another cell line or another target. No call is given for them. Compounds called inactive in the main read-out are mostly missing here. Potencies come from curve fits of mixed quality, noted in brackets.

The test is described as follows: qHTS Assay for Lipid Storage Modulators in Drosophila S3 Cells.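 For cell number change: cells counted by Cell Tracker Red CMTPX staining in the red channel.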 Particulars: BODIPY lipid droplet fluorescence, 18-24 h; for cell number change: measured here: cell count max response, cells fed with added oleic acid. In a few lines:
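Drosophila S3 cells got compounds at several concentrations plus oleic acid (400 uM solution). Laser-scanning cytometry with 488 nm excitation read lipid droplets at 500-530 nm and cells at 575-640 nm. Percent activity was relative to 20 uM Triacsin C.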
(In general: qHTS replaces the single test concentration by a dilution series.)

Where [1] appears, read: measured here: cell number channel AC50, cells fed with added oleic acid.
Where [2] appears, read: measured here: lipid fluorescence (Fed channel) AC50, cells fed with added oleic acid.

For `CCn1c(CNC(=O)c2ccco2)nnc1SCC(=O)c1ccc(F)cc1`, the cell number change was -8.57%. The AC50 under setting [1] was 5.17 µM [falling, partial curve, poor fit]. For the same compound, the AC50 under setting [2] was 29.1 µM [rising, partial curve].
Take `CC1CCCC(C)N1C(=O)CSc1nccc(=O)[nH]1` (stereo not given): the cell number change came to 16.1%.
In the case of `O=C(NCc1ccccc1)C1=C[C@@H](c2ccc(C(F)(F)F)cc2)C[C@@H](OCc2ccc(CO)cc2)O1`, the cell number change is -14%. Also, under setting [2], the AC50 was 0.651 µM [rising, full curve, poor fit].
Take `CC(C)N(Cc1nc(-c2ccccc2)no1)C(=O)C(Cl)(Cl)Cl`: the cell number change amounted to 103%. Under setting [1], the AC50 was 23.1 µM [rising, partial curve].
In the case of `O=C(c1ccc(Cl)c(NC2=NC3CS(=O)(=O)CC3S2)c1)N1CCN(c2ccc(F)cc2)CC1` (stereo not given), the half-maximal activity concentration (AC50) under setting [2] is 29.1 µM [rising, single point].
Take `COc1ccc(NS(=O)(=O)c2cccc(C(=O)NNC(=O)CNC(=O)c3ccccc3F)c2)cc1`: the cell number change is -8.23%. Moreover, the half-maximal activity concentration (AC50) under setting [2] is 7.31 µM [rising, partial curve].
As for `CN1CCC(NC(=O)c2cc(-c3cccc(Br)c3)nc3ccccc23)CC1`, the cell number change is -7.12%.
For `Cc1ccc(CC(=O)OC(C)C(=O)NC2CCCCC2C)cc1C` (stereo not given), the cell number change was found to be 3.71%. Also, the AC50 under setting [2] is 0.00461 µM [falling, full curve, poor fit].
On to `C=CCc1cc(OC)ccc1OCCON1C(=O)CCC1=O`, for which the cell number change worked out at 4.65%. The AC50 under setting [2] is 13 µM [rising, single point].
For `CCc1nnc(NC(=O)CSc2nnc(-c3ccccc3O)n2CC)s1`, the cell number change came to 56.1%. Moreover, the AC50 under setting [1] is 14.6 µM [rising, single point]. Further, under setting [2], the AC50 is 0.651 µM [rising, single point].
Turning to `CCn1ncc(C2=NOC(C(=O)Nc3ccc4c(c3)OCO4)C2)c1C` (stereo not given), the cell number change was 11.2%. In addition, the AC50 under setting [1] is 0.731 µM [rising, single point]. Besides, the AC50 under setting [2] was 1.03 µM [rising, single point].
As for `CC(C)c1ccc(-c2nc(N3CCOCC3)[nH]c(=O)c2C#N)cc1`, the cell number change was -14.8%.
Take `COc1cccc2c3c(c(=O)[nH]c12)CCC(C)(C)O3`: the cell number change stood at 37.4%. Further, the AC50 under setting [1] is 1.03 µM [rising, full curve]. Further, the concentration at half-maximal activity (AC50) under setting [2] was 2.59 µM [rising, full curve].
Turning to `O=C(Cc1ccccc1)NNC1CC(=O)N(c2ccc(Br)cc2)C1=O` (stereo not given), the cell number change was -30.1%. Further, the AC50 under setting [2] is 4.61 µM [falling, full curve].
On to `COc1ccc(-n2nnnc2SCC(=O)c2ccc(OC)c(OC)c2)cc1`, for which the cell number change was -0.388%. Further, the AC50 under setting [2] was 2.59 µM [rising, partial curve].
Consider `O=C(CCCN1C(=O)/C(=C\c2ccco2)SC1=S)Nc1ccc2ccccc2c1`, for which the cell number change was -27.1%. For the same compound, under setting [2], the concentration at half-maximal activity (AC50) was 9.2 µM [falling, partial curve, poor fit].
For `N/C(Cc1cccs1)=N\OC(=O)COc1ccc(Br)cc1`, the cell number change was found to be 29.6%. Also, the AC50 under setting [2] was 29.1 µM [rising, single point].
On to `CC[C@H](C)[C@@H](C(=O)NCCCCCCCCCCC(=O)N1CCN(C(=O)OC(C)(C)C)CC1)n1cc(CCCCCNC(=O)OC(C)(C)C)nn1`, for which the cell number change was -37.9%. Further, the concentration at half-maximal activity (AC50) under setting [1] was 10.3 µM [falling, partial curve]. Moreover, under setting [2], the AC50 was 29.1 µM [falling, single point].
For `CCOC(=O)c1nc(C)n(-c2cc(Cl)ccc2Cl)n1`, the cell number change was 22.8%. Further, the AC50 under setting [2] is 6.51 µM [falling, single point].
For `COc1ccc(-c2cc3ccc(OCc4nn[nH]n4)cc3oc2=O)cc1OC`, the cell number change was -9.91%. The AC50 under setting [2] is 0.103 µM [falling, partial curve, poor fit].
For `CCCCCCCN1C/C=C\C(c2ccc(OC)cc2)N(Cc2ccc(F)cc2)C(=O)[C@H]1Cc1ccccc1` (stereo not given in full), the cell number change worked out at 19.1%. Moreover, the AC50 under setting [2] is 10.3 µM [rising, partial curve].
Take `O=C(NCC1CCCO1)C1CCC(=O)N1Cc1ccccc1Cl` (stereo not given): the cell number change is -38%. In addition, under setting [1], the half-maximal activity concentration (AC50) was 10.3 µM [falling, partial curve, poor fit].
Take `O=C(COC(=O)/C=C/c1ccccc1[N+](=O)[O-])Nc1ccc(OCc2ccccc2)cc1`: under setting [1], the half-maximal activity concentration (AC50) was 1.64 µM [falling, partial curve, poor fit].
Regarding `O=S(=O)(NCCc1csc(-c2cccnc2)n1)c1ccc(Cl)s1`, the cell number change stood at 11.2%. For the same compound, the AC50 under setting [2] is 6.51 µM [rising, partial curve, poor fit].
For `COc1ccc(CCNC(=O)C2CCN(S(=O)(=O)N3CCC4(CC3)OCCO4)CC2)cc1OC`, the cell number change came to 12.6%. Also, the AC50 under setting [2] was 10.3 µM [rising, single point].
Consider `CCc1ccc(N(CC(=O)Nc2nc3ccc(C)cc3s2)S(=O)(=O)c2c(C)noc2C)cc1`, for which the cell number change turned out to be 8.13%. For the same compound, under setting [2], the AC50 was 0.82 µM [falling, single point].
Regarding `O=C(O)CN1C(=O)/C(=C\c2cc([N+](=O)[O-])ccc2OCc2ccccc2Cl)SC1=S`, the cell number change came to 11.3%. Further, the AC50 under setting [2] was 6.51 µM [falling, single point].
Regarding `O=C(CN1C(=O)C2C3C=CC(C3)C2C1=O)N1CC(=O)N(CCc2ccccc2)C(=O)C1` (stereo not given), the cell number change amounted to 3.76%. Also, the AC50 under setting [1] is 0.116 µM [falling, full curve, poor fit]. For the same compound, the AC50 under setting [2] was 6.51 µM [falling, single point].
With `O=C(CSc1nnnn1C1CCCCC1)NCc1cccs1`, the cell number change was found to be 23.6%. The AC50 under setting [2] was 0.00461 µM [rising, full curve, poor fit].
With `COc1ccc(S(=O)(=O)N2CCCCCC2)cc1C(=O)N(C)CCOc1ccc(Cl)cc1`, the AC50 under setting [2] is 1.3 µM [falling, partial curve].
As for `CC(=O)c1ccc(Nc2c([N+](=O)[O-])ccc3nonc23)cc1`, the cell number change worked out at 61.1%. Further, under setting [1], the AC50 is 29.1 µM [rising, single point]. Besides, the AC50 under setting [2] was 29.1 µM [falling, single point].
As to `CCC(=O)Nc1ccc(NC(=O)CSc2nnc(C(C)C)n2C)cc1`, the cell number change is 7.47%.
In the case of `C/C(=N\NC(=O)CNc1cccc(Cl)c1C)c1cccs1`, the cell number change was -33.7%. For the same compound, under setting [1], the AC50 is 8.2 µM [falling, partial curve]. In addition, the AC50 under setting [2] is 23.1 µM [falling, single point].
`CCc1noc(C)c1C(=O)OCC(=O)NC(=O)c1ccccc1`: the cell number change stood at 1.49%. Moreover, the AC50 under setting [2] is 0.13 µM [falling, full curve, poor fit].
For `CCN1CCN(C(=O)CN(C)S(=O)(=O)c2ccc(OC)c(C)c2)CC1`, the cell number change was determined as 7.72%. Besides, the AC50 under setting [2] was 0.461 µM [falling, single point].
With `CN1C(=O)/C(=C\c2cc(Br)cs2)c2ccccc21`, the cell number change worked out at 32.1%. In addition, the AC50 under setting [1] was 8.2 µM [rising, partial curve, poor fit].
With `CCCCN(C(=O)CCC(=O)Nc1cc(C)on1)C(C(=O)NC1CCCC1)c1ccccc1C` (stereo not given), the cell number change was 13.3%.
Consider `CCOC(=O)CSc1nnc(CNC(=O)c2ccccc2OC)n1-c1ccc(OC)cc1`, for which the cell number change stood at 0.833%. Under setting [2], the AC50 was 2.91 µM [falling, single point].
Consider `CN(C)C(CNC(=O)c1ccc(NS(=O)(=O)c2ccc(F)cc2)cc1)c1ccco1` (stereo not given), for which the cell number change is 23.7%.
With `CC(OC(=O)CCc1nc(=O)c2ccccc2n1C)C(=O)NCc1ccc2c(c1)OCO2` (stereo not given), the cell number change is -12.9%. Moreover, the AC50 under setting [2] was 0.651 µM [rising, single point].
For the compound `Cc1ccccc1NC(=O)NC1CCS(=O)(=O)C1` (stereo not given), the cell number change was found to be 1.32%.
For the compound `CNC(=S)N1N=C(c2ccccc2)CC1c1ccc(Br)cc1` (stereo not given), the cell number change is 6.59%. For the same compound, the AC50 under setting [2] is 0.103 µM [rising, full curve, poor fit].
With `COc1ccc(OC)c(N=c2oc3c(OC)cccc3cc2C(=O)NCc2ccco2)c1`, the cell number change was -12.2%. For the same compound, the AC50 under setting [1] is 3.66 µM [falling, single point].
Turning to `CC(C)OC(=O)CC(=O)CSc1nc2c(cc1C#N)CCCCCC2`, the cell number change is 5.31%.
For `COc1cc2ccccc2cc1C(=O)Nc1ccc(N2CCN(C)CC2)cc1`, the cell number change was 21.3%. Further, the AC50 under setting [2] was 18.4 µM [falling, single point].
On to `COc1cc(C(=O)Nc2ccc(NC(=O)C3CC3)nc2)cc(OC)c1OC`, for which the cell number change amounted to 1.53%. Further, the AC50 under setting [2] is 4.11 µM [rising, single point].
Take `CC(CC(=O)N1CCN(c2ccccc2F)CC1)c1ccccc1` (stereo not given): the cell number change was 7%. For the same compound, the AC50 under setting [2] was 0.58 µM [falling, partial curve, poor fit].
Take `Cc1ccsc1/C=C1/SC(=O)N(CC(=O)N2CCCC2)C1=O`: the cell number change is -9.52%. For the same compound, the AC50 under setting [1] is 0.00461 µM [falling, full curve, poor fit].
On to `Cc1ccc(S(=O)(=O)NCC(=O)OC(C)C(=O)c2ccccc2)cc1` (stereo not given), for which the cell number change came out at 99%. In addition, the concentration at half-maximal activity (AC50) under setting [1] was 20.6 µM [rising, partial curve]. The half-maximal activity concentration (AC50) under setting [2] was 29.1 µM [rising, partial curve].
Regarding `CC(OC(=O)CCC(=O)c1ccc(Cl)s1)C(=O)NC1(C#N)CCCCC1` (stereo not given), the cell number change turned out to be 40.9%. Under setting [1], the AC50 was 29.1 µM [rising, single point]. The AC50 under setting [2] was 20.6 µM [rising, single point].
For the compound `O=C(NCc1ccc(F)cc1)c1ccc(S(=O)(=O)N2CCCCC2)cc1`, the cell number change amounted to 18.5%. Under setting [2], the AC50 is 29.1 µM [rising, single point].
In the case of `CCOC(=O)c1[nH]c(C)c(C(=O)OC(C)C(=O)Nc2ncc(Cl)cc2Cl)c1C` (stereo not given), the cell number change is -44.1%. Under setting [1], the AC50 was 2.91 µM [falling, full curve].
Turning to `C=CCn1cc(C(=O)N2CCN(c3ccccc3)CC2)c(=O)c2cc(S(=O)(=O)N3CCCC3)ccc21`, the cell number change was -18.9%.
In the case of `CC1CC(C)CN(CCC(=O)Nc2ccc(Br)cc2)C1` (stereo not given), the cell number change amounted to 20.2%. Moreover, under setting [2], the AC50 is 0.146 µM [rising, full curve, poor fit].
On to `O=C(CN1C(=O)NC2(CCCCC2)C1=O)N1CCOCC1`, for which the cell number change is -2.14%. In addition, the AC50 under setting [2] is 0.00517 µM [falling, full curve, poor fit].
As for `Cc1ccc(C(N)=S)c(C)c1`, the cell number change was -14.3%. Besides, under setting [2], the AC50 was 2.06 µM [falling, full curve, poor fit].
Turning to `CN1CCN(c2ccccc2NC(=O)c2ccc(N3CCOCC3)c([N+](=O)[O-])c2)CC1`, the cell number change was -34.2%.
Still for that read-out and setting: in the case of `COc1ccc2cc3c(N)c(C(=O)N4CCCC4)sc3nc2c1` it was -14.2%.
For `C#CCN(C)CCCOc1ccc(Cl)cc1Cl`, the cell number change is -32.6%. For the same compound, under setting [1], the AC50 was 29.1 µM [falling, single point]. In addition, the concentration at half-maximal activity (AC50) under setting [2] was 23.1 µM [falling, single point].
